Experimental data published in the supplement of paper PMC10849652.
The list shows a part of the results.

Protein sequences, listed by entry. Tags and fused reporters are not part of them. Lines headed by an entry give the natural chain unless they say otherwise; changes in a name come on top.
UniProt Q6UWP7: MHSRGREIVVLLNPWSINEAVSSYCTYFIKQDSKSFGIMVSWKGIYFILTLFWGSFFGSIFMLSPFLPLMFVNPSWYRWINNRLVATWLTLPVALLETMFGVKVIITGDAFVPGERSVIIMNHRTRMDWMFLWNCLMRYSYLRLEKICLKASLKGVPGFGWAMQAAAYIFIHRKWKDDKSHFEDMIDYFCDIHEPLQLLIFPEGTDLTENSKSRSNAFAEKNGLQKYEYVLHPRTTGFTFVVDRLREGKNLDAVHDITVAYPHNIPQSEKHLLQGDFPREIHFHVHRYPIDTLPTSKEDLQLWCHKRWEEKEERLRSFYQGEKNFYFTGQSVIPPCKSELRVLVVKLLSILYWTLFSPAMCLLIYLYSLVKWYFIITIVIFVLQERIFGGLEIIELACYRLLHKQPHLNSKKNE
UniProt Q9Y2Q5, whole entry, looked up: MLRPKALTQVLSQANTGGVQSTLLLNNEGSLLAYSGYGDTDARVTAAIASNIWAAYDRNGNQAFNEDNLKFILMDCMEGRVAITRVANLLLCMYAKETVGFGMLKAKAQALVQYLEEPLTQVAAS
UniProt P36776: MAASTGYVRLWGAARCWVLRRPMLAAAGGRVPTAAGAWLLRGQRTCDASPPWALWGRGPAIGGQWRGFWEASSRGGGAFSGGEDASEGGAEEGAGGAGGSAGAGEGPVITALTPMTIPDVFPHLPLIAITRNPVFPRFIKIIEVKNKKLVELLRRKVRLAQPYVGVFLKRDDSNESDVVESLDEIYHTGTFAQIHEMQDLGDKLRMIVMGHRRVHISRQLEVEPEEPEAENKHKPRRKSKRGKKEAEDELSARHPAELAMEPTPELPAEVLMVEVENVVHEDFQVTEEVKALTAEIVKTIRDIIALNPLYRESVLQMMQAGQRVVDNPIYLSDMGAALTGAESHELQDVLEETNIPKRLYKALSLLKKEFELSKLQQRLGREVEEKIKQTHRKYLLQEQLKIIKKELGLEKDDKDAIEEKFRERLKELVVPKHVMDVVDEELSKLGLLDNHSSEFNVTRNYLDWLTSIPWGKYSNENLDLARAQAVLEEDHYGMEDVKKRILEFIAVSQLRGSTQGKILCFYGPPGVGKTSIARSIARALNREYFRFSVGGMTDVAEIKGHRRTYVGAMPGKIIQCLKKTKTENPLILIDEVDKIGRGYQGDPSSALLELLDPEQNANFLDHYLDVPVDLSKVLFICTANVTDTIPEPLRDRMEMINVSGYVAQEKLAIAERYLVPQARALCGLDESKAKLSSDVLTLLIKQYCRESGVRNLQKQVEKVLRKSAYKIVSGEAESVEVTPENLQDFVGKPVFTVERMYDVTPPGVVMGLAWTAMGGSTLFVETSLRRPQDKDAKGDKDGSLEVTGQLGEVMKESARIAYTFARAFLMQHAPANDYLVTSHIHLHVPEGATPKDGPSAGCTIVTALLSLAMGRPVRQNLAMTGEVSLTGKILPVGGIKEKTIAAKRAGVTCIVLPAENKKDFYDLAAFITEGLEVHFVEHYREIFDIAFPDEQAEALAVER
UniProt Q6ZN17: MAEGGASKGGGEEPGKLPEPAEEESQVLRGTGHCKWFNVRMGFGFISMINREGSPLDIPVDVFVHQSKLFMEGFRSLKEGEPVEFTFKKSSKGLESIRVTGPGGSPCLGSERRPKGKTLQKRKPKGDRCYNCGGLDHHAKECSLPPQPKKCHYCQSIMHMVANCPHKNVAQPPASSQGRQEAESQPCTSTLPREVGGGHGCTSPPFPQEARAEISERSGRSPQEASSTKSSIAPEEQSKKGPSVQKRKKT
UniProt Q12907: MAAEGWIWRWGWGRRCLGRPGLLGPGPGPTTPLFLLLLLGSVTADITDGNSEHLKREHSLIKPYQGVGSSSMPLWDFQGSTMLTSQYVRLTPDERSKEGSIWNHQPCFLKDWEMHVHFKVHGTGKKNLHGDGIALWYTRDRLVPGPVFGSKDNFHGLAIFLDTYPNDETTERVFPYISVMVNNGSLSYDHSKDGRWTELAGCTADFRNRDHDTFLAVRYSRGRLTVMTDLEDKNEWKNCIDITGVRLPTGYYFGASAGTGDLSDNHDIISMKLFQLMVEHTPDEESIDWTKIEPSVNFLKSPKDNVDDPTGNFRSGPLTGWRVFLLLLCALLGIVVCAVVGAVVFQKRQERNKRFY
UniProt Q9NS86: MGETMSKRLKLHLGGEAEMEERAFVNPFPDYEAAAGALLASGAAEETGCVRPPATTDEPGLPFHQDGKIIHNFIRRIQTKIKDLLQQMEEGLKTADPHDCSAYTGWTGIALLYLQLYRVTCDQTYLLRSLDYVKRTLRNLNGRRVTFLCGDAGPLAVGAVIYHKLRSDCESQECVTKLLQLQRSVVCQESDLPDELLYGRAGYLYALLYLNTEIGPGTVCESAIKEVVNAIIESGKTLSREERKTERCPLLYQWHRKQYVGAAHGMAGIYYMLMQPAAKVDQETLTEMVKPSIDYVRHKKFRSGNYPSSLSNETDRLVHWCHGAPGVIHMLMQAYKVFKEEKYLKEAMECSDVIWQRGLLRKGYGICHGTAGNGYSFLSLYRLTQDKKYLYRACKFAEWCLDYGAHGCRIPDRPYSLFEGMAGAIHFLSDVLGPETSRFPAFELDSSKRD
UniProt P13796: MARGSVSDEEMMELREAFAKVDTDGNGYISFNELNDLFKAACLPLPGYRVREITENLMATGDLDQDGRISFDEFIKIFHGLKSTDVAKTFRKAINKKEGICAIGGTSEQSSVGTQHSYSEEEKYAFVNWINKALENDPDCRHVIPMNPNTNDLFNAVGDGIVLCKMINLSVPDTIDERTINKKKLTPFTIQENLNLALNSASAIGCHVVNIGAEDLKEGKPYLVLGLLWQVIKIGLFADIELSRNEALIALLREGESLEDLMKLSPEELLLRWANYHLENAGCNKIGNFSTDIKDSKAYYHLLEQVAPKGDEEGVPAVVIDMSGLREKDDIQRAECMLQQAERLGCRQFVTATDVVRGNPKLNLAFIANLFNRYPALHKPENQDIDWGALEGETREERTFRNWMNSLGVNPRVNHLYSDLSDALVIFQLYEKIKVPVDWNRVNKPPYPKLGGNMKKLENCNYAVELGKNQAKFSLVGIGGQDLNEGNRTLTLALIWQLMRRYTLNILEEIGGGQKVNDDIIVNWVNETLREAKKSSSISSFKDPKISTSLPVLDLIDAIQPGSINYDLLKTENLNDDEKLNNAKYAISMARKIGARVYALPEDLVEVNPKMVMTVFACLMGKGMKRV
UniProt P53671: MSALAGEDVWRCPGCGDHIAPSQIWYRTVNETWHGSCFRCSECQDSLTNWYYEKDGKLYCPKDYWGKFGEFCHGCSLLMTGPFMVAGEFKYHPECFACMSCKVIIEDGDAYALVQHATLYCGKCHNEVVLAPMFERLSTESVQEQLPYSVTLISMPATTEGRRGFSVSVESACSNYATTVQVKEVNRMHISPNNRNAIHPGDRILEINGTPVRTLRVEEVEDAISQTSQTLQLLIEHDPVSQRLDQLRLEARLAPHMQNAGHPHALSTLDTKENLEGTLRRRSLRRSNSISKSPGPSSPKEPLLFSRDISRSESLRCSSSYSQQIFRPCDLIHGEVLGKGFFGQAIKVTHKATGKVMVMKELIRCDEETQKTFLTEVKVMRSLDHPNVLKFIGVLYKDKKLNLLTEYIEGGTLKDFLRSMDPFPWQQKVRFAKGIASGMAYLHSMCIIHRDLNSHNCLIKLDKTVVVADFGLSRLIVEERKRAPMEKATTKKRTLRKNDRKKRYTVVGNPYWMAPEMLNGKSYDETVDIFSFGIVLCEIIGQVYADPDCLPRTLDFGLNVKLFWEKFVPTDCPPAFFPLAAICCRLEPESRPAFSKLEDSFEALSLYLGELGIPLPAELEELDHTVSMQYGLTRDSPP
UniProt Q9H9A6: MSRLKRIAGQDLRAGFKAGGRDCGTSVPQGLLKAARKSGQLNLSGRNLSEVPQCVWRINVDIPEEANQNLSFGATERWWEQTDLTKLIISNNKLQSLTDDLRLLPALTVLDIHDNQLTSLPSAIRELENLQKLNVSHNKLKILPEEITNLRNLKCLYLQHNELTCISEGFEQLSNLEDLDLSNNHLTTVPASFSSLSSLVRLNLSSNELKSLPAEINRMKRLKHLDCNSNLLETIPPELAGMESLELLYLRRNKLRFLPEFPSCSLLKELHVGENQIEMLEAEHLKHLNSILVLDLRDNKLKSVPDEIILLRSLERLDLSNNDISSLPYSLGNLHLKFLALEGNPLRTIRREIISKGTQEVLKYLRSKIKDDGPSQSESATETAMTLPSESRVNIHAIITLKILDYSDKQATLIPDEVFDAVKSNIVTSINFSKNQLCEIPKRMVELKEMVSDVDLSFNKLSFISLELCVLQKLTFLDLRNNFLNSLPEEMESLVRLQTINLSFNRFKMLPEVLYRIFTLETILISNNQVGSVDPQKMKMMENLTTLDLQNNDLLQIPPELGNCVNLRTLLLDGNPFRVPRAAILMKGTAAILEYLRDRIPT
UniProt Q9P2J5: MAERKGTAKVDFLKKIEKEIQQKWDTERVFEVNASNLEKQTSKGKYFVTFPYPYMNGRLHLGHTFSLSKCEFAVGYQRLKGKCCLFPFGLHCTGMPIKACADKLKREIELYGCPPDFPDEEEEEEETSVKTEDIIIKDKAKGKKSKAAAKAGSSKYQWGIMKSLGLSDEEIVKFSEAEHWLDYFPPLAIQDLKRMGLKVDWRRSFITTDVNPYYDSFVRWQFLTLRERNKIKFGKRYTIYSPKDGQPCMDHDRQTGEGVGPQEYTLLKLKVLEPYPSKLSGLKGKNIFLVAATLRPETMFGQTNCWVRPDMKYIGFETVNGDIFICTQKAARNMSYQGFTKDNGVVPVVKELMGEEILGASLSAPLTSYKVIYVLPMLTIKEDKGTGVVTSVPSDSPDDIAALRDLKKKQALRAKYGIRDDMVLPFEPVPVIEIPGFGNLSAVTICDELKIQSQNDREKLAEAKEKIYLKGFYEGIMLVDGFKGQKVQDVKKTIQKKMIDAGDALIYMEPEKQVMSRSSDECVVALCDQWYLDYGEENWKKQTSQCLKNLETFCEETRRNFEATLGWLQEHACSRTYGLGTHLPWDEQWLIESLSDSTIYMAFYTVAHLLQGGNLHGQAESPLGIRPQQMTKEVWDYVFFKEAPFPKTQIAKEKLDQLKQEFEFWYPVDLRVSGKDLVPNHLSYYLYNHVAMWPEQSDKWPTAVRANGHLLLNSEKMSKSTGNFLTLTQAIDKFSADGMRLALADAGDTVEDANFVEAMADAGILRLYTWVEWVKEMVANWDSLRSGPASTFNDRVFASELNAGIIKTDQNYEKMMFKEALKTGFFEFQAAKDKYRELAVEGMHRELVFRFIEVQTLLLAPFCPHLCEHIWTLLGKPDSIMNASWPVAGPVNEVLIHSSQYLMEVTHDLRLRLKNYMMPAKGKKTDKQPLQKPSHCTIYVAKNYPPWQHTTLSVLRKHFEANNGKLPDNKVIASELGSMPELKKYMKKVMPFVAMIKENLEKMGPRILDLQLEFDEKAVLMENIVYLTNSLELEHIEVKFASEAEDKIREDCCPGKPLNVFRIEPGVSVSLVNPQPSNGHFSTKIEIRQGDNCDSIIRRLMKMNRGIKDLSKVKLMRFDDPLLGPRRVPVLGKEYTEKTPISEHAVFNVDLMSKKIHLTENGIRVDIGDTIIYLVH
UniProt Q96EM0: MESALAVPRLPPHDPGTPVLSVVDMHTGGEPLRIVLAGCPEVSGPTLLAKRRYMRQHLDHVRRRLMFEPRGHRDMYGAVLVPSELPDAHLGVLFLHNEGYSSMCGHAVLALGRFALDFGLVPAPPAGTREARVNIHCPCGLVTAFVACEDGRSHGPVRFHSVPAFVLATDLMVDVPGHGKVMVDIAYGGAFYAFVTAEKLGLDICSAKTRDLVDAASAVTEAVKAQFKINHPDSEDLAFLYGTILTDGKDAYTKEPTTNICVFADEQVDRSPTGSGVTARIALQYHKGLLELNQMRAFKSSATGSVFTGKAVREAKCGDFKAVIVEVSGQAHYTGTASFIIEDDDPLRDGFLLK
UniProt Q9BRT6: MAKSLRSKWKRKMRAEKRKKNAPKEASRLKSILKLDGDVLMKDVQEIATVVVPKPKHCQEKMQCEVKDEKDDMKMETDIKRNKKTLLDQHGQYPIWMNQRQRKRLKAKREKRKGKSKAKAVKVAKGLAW
UniProt Q9UIC8: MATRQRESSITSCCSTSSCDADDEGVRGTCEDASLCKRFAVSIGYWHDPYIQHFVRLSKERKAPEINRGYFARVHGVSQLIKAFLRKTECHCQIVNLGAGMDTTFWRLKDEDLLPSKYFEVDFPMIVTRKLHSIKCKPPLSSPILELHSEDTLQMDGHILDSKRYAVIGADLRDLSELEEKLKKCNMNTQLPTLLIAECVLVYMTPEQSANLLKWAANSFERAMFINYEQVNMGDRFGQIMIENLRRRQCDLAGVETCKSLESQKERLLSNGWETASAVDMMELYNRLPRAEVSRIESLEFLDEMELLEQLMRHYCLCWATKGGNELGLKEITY
UniProt Q8TCA0: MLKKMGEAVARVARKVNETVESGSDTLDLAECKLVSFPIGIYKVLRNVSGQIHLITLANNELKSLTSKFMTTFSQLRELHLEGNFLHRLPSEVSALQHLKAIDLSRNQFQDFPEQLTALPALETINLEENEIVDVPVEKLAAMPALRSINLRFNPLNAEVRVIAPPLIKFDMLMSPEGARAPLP

Compound: CN1CCc2c(c3ccccc3n2Cc2ccc(C(=O)NO)cc2)C1 [Tubastatin A]
Test: log2 fold change, soluble protein after heating vs DMSO (PISA); higher = thermal stabilisation; K562 cells, 10 uM, 30 min; active = over 0.2 and 3.5 SD of the protein, either way, in both replicates (recomputed)
Summary of the method: (§1)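 K562 cells at 2×10^6 cells/mL were exposed to 10 μM compound for 30 min, then aliquots were heated for 3 min across 48°C-58°C, pooled, and extracted in PBS containing 0.5% NP-40 at 4°C. The supernatant after 21,000xg for 90 min was taken as soluble protein and measured by TMTpro 16plex LC-MS/MS with channel sums equalised. Thermal stability is reported relative to control samples, with values from duplicates. Fold changes are given on a log2 scale.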

Row | Target | log2 fold change
1 | LCLAT1 (UniProt Q6UWP7) | inactive: -0.002
2 | LAMTOR2 (UniProt Q9Y2Q5) | inactive: -0.009
3 | LONP1 (UniProt P36776) | inactive: -0.015
4 | LIN28B (UniProt Q6ZN17) | inactive: 0.018
5 | LMAN2 (UniProt Q12907) | inactive: 0.02
6 | LANCL2 (UniProt Q9NS86) | inactive: -0.001
7 | LCP1 (UniProt P13796) | inactive: -0.016
8 | LIMK2 isoform 3 (UniProt P53671) | inactive: -0.005
9 | LRRC40 (UniProt Q9H9A6) | inactive: 0.014

Compound: CNC(=O)C1=CC=CC=C1NC2=NC(=NC=C2Cl)NC3=C(C=C(C=C3)N4CCOCC4)OC
Test: as above
Summary of the method: as §1

Row | Target | log2 fold change
10 | LARS (UniProt Q9P2J5) | inactive: 0.045
11 | KYAT3 (UniProt Q6YP21) | inactive: -0.025
12 | LAMTOR1 (UniProt Q6IAA8) | inactive: -0.014
13 | LHPP (UniProt Q9H008) | inactive: 0.012
14 | LAP3 (UniProt P28838) | inactive: -0.019
15 | LANCL1 (UniProt O43813) | inactive: -0.045
16 | LASP1 (UniProt Q14847) | inactive: -0.037
17 | LRRC47 (UniProt Q8N1G4) | inactive: 0.011
18 | L3HYPDH (UniProt Q96EM0) | inactive: -0.038
19 | LRRC57 (UniProt Q8N9N7) | inactive: -0.047
20 | LIMS1 isoform 3 (UniProt P48059) | inactive: -0.017
21 | LARS2 (UniProt Q15031) | inactive: 0.029
22 | LLPH (UniProt Q9BRT6) | inactive: -0.034
23 | LACTB2 (UniProt Q53H82) | inactive: -0.038
24 | LCMT1 (UniProt Q9UIC8) | inactive: 0.01
25 | LDB1 (UniProt Q86U70) | inactive: -0.05

Row | Target | log2 fold change
26 | LENG1 (UniProt Q96BZ8) | inactive: -0.062
27 | LIG1 (UniProt P18858) | inactive: 0.033
28 | LETM1 (UniProt O95202) | inactive: 0.026
29 | LDHB (UniProt P07195) | inactive: -0.037
30 | LMAN2L isoform 2 (UniProt Q9H0V9) | inactive: -0.02
31 | LPCAT1 (UniProt Q8NF37) | inactive: -0.01
32 | LRRC20 (UniProt Q8TCA0) | inactive: 0.011
33 | LCLAT1 (UniProt Q6UWP7) | inactive: -0.048
34 | LAMTOR2 (UniProt Q9Y2Q5) | inactive: -0.037
35 | LONP1 (UniProt P36776) | inactive: 0.041
36 | LIN28B (UniProt Q6ZN17) | inactive: -0.019
37 | LMAN2 (UniProt Q12907) | inactive: 0.082
38 | LANCL2 (UniProt Q9NS86) | inactive: -0.038
39 | LCP1 (UniProt P13796) | inactive: -0.012
40 | LIMK2 isoform 3 (UniProt P53671) | inactive: -0.014
41 | LRRC40 (UniProt Q9H9A6) | inactive: 0.018

Compound: CNC(=O)c1ccc(Nc2ncc(C(F)(F)F)c(NCc3nccnc3N(C)S(C)(=O)=O)n2)cc1 [defactinib]
Test: as above
Summary of the method: as §1

Row | Target | log2 fold change
42 | LARS (UniProt Q9P2J5) | inactive: 0.163
43 | KYAT3 (UniProt Q6YP21) | inactive: -0.012
44 | LAMTOR1 (UniProt Q6IAA8) | inactive: 0.018
45 | LHPP (UniProt Q9H008) | inactive: -0.004
46 | LAP3 (UniProt P28838) | inactive: -0.018
47 | LANCL1 (UniProt O43813) | inactive: -0.028
48 | LASP1 (UniProt Q14847) | inactive: -0.012
49 | LRRC47 (UniProt Q8N1G4) | inactive: -0.04
50 | L3HYPDH (UniProt Q96EM0) | inactive: 0.007
51 | LRRC57 (UniProt Q8N9N7) | inactive: -0.053
52 | LIMS1 isoform 3 (UniProt P48059) | inactive: -0.009
53 | LARS2 (UniProt Q15031) | inactive: -0.066
54 | LLPH (UniProt Q9BRT6) | inactive: 0.57
55 | LACTB2 (UniProt Q53H82) | inactive: 0.003
56 | LCMT1 (UniProt Q9UIC8) | inactive: -0.025
57 | LDB1 (UniProt Q86U70) | inactive: -0.017

Row | Target | log2 fold change
58 | LENG1 (UniProt Q96BZ8) | inactive: 0.068
59 | LIG1 (UniProt P18858) | inactive: -0.3
60 | LETM1 (UniProt O95202) | inactive: -0.059
61 | LDHB (UniProt P07195) | inactive: 0.013
62 | LMAN2L isoform 2 (UniProt Q9H0V9) | inactive: -0.02
63 | LPCAT1 (UniProt Q8NF37) | inactive: -0.031
64 | LRRC20 (UniProt Q8TCA0) | inactive: -0.052
65 | LCLAT1 (UniProt Q6UWP7) | inactive: -0.03
66 | LAMTOR2 (UniProt Q9Y2Q5) | inactive: -0.042
67 | LONP1 (UniProt P36776) | inactive: -0.024
68 | LIN28B (UniProt Q6ZN17) | inactive: 0.106
69 | LMAN2 (UniProt Q12907) | inactive: 0.003
70 | LANCL2 (UniProt Q9NS86) | inactive: -0.015
71 | LCP1 (UniProt P13796) | inactive: -0.013
72 | LIMK2 isoform 3 (UniProt P53671) | inactive: 0.099
73 | LRRC40 (UniProt Q9H9A6) | inactive: -0.116
